# In all, about 33,000 sequences were measured (“E-score (-0.5 to 0.5)”: median about -8e-05, highest 2% from about 0.23 on). Some of the results follow.
# Molecular target: T1, Nrg2 (UniProt P38082)
# T1 sequence: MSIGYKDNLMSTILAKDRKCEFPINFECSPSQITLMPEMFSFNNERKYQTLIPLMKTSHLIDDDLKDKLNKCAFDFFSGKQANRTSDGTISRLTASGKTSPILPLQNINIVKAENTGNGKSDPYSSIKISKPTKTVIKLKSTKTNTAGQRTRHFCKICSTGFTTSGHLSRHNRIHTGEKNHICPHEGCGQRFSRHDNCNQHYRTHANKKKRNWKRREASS
# Test: PBM E-score (8-mer binding enrichment) (E-score (-0.5 to 0.5)); higher = stronger / more preferred TF binding
# Details: protein concentration: 100 nM; construct: GST-full length
# Method in brief: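 Yeast transcription factors carrying a GST tag, as full-length proteins or DNA-binding domains, were produced by PURExpress in vitro transcription/translation. About 100-200 nM protein was applied to universal all-10-mer Agilent arrays, double-stranded by primer extension on fresh or once-stripped slides. Bound protein was detected with fluorescent anti-GST, and scans were normalised with masliner. The Universal PBM Analysis Suite gave each ungapped eight-base word, pooled with its reverse complement, an E-score, a modified Wilcoxon-Mann-Whitney statistic.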
row,Sequence,PBM E-score
1,CAATCGTG,0.0123
2,CCGGGGCG,-0.124
3,CATCCACG,-0.0485
4,GCCGTAAA,0.178
5,ACGGAACG,0.00809
6,ACTAGTTA,-0.0387
7,CCTAATAC,0.116
8,ATGGCTGC,0.0232
9,GTCTAGTA,0.0934
10,TCAGAAGA,-0.202
11,CTTATAAA,0.131
12,CGCAAACA,0.203
13,CTCCTGTA,-0.111
14,CAAATAGC,0.00233
15,CAGTGGCC,-0.107
16,CCCCTTGC,-0.0115
17,ACGACCGC,-0.148
18,ATCTAGAT,-0.062
19,ACAAGTCC,-0.0791
20,AGGTTTGG,-0.0346
21,CAGTGCCA,-0.247
22,CTCTTAGC,-0.0671
23,ATGAACTC,0.0271
24,ATCAGTCA,0.0252
25,GAATAACA,0.265

row,Sequence,PBM E-score
1,GACCACTA,0.129
2,AATAGACA,0.0965
3,AAATTGCG,0.0271
4,CTCTATGA,-0.0917
5,AGGAGAAA,-0.0359
6,GTGTACAA,0.023
7,GGCTTTAC,-0.132
8,ACCGGAGT,-0.116
9,AAGCCATA,0.0571
10,ACGCTCCC,-0.182
11,TCTTTTCA,0.0352
12,GAACGGTC,-0.0333
13,AATATATC,0.111
14,AGGAAAAT,0.0204
15,ATTACCAC,-0.0537
16,AACTGACA,0.0695
17,GAAGCTTA,0.0125
18,GAGACGGC,-0.0458
19,CGGCACCA,-0.0985
20,CTATGTAC,0.0235
21,AACTAATC,0.0549
22,AATACCAA,0.11
23,GGATCAGA,-0.0493
24,GATTAAGA,0.137
25,CATGCCAC,0.0488

# 4 records picked at random from those above, as already listed:
row,Sequence,PBM E-score
23,ATGAACTC,0.0271
25,CATGCCAC,0.0488
2,AATAGACA,0.0965
14,CAAATAGC,0.00233

# Continuation.

row,Sequence,PBM E-score
1,AACAAGAG,0.0791
2,CTTTCACA,0.136
3,AAAATTAA,0.0942
4,GCGGCCTA,-0.0907
5,CTACTCAG,-0.0405
6,CTAAGGGA,0.0517
7,TACGTGAA,-0.111
8,AATGCCTG,-0.164
9,AGCGGTCC,-0.0422
10,CATCACAA,0.06
11,TATCGCCA,0.0646
12,CCCGACGG,0.0268
13,ATAAGTTC,0.0764
14,ACAAGTCT,-0.0606
15,TATCGACA,0.0689
16,GTGATCCA,-0.0317
17,GAACTACA,0.0639
18,CACTCGTC,-0.0519
19,AGACATAT,0.117
20,AAAGCCGG,0.155
21,CGACATCA,0.0768
22,AGCGGCGC,-0.0829
23,AGATAGTA,0.102
24,GGGAGCCA,-0.229
25,GAAGGGTC,0.0665

row,Sequence,PBM E-score
1,GCCCTTAA,0.0375
2,CCATAACA,0.183
3,AGTCTTAA,-0.173
4,GTTGAGTA,0.102
5,CTAGCTAA,-0.0409
6,ACCGCTCG,-0.0474
7,ATTGGGTC,0.174
8,ATTTCTAA,-0.121
9,AGCGCGAC,0.12
10,CCCAGAAC,0.0532
11,AATCCTAC,-0.254
12,ATTCGGCA,-0.1
13,AGTCCAGC,-0.209
14,CATCAAGC,0.0474
15,GGTTAACC,0.0695
16,AAGCGTCA,0.0781
17,GGCCGCCC,-0.133
18,AACCTTTG,-0.124
19,AACATTCC,0.00997
20,CGATTCCA,0.0891
21,AGGTTACC,0.107
22,CGAGGTTC,0.142
23,ATGAAACC,0.122
24,AGTCCCAA,-0.0144
25,AATTGTGA,0.116

row,Sequence,PBM E-score
1,CGGAGTTC,0.0454
2,TGTGAGAA,0.183
3,ACGGGATC,-0.068
4,GAGAGTCA,-0.128
5,TCCACCCA,-0.127
6,ATCAGCTC,0.0372
7,ATGTAGTA,0.154
8,GCACTGAA,0.00332
9,TAAGTCTA,-0.188
10,CTAACCCA,-0.00624
11,CTTTAGGA,-0.0706
12,TGTTGAAA,0.19
13,CGGCCCCC,-0.259
14,ATGAGCTA,0.069
15,AAGCTGTG,0.00179
16,GGGATTTA,-0.00047
17,GTTAAATA,-0.0438
18,ACCATCAT,-0.0921
19,GAACGGCA,0.08
20,CAGCACGA,0.0405
21,CACGTAAC,-0.109
22,GCCGCTAC,0.117
23,AGTATGTG,0.0654
24,CACTATCA,0.0367
25,TCTTTGAA,-0.105

row,Sequence,PBM E-score
1,GAACAAAA,0.195
2,AACCAAAA,0.184
3,CAGTTCAA,0.0698
4,CCCACATA,-0.117
5,ACCCAGGA,-0.227
6,ATTTCTAG,0.0904
7,CCAGCACA,-0.0581
8,CGCTCCGC,-0.116
9,GTAGTGAA,0.0655
10,TAGGCTAA,-0.13
11,CACGCGAA,-0.135
12,AATCTGCA,0.0698
13,CACAAGTG,-0.208
14,GTGTATGA,-0.0712
15,ACGGTTAA,-0.153
16,ATGATCGG,0.0383
17,ATTTATGA,0.123
18,ATCCTTTA,-0.0227
19,AGAGGTAT,0.146
20,CGTTTGAC,0.0838
21,AAATTATC,0.146
22,AGATTGAC,0.0498
23,GTGTAGGA,0.0152
24,GACGTAAC,-0.0563
25,GAAGGATA,-0.0924

row,Sequence,PBM E-score
1,ACAGGCGC,-0.16
2,AGCAGAAG,-0.0369
3,TCGTATCA,0.0635
4,GAGCGCAA,-0.0151
5,GCGGGTTA,0.143
6,CCGCGAGA,-0.0513
7,CGAGTCAC,-0.151
8,TTCCCGAA,0.0661
9,TCCTACGA,-0.256
10,AGTGGGGA,0.0197
11,AAGCTCTC,-0.148
12,AGTTACTC,0.0176
13,ACTGTGTA,0.128
14,ATATTTTG,0.00867
15,ACGCTATA,-0.104
16,CCTTTTAG,-0.209
17,AAATTGAC,0.0103
18,ATATATAA,0.24
19,ATGTCTCA,-0.00934
20,CCCGTATA,0.1
21,CCACACTC,-0.105
22,ACTCTGCT,-0.0865
